# Measurements: publication PMC7819943, “Rice protein-binding microarrays: a tool to detect cis-acting elements near promoter regions in rice”
# The list shows a part of the results.
# Target: T1, OsSMF1 (Oryza sativa, UniProt Q6ZLB0 1-436)
# T1 sequence: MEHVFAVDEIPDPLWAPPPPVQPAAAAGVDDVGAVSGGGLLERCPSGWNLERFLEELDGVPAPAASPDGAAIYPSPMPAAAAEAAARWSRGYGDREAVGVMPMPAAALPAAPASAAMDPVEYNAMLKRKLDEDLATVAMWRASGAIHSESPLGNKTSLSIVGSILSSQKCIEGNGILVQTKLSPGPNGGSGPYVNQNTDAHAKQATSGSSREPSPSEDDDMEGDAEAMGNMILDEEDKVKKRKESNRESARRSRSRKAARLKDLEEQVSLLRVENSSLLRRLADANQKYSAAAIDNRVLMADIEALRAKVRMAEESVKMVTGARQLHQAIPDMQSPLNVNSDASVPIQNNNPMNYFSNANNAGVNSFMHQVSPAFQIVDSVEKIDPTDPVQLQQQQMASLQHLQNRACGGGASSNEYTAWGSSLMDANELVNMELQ
# Assay: protein-binding microarray (RPBM); PBS, 2% BSA, 51.3 ng/ul salmon testes DNA, 50 uM zinc acetate, 200 nM TF, 25 C, 1 h; high values mean tight binding
# Conditions: protein: recombinant; tags: N-terminal polyhistidine and DsRed monomer fusion (pET32a); chain copies: 2; label: CyDye5-dUTP incorporated in the synthesized complementary strand; 3' TTTTT single-stranded linker to array surface; dsDNA, one strand shown
# Method in brief: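 Transcription factors were made in E. coli BL21-CodonPlus as N-terminal fusions to a polyhistidine tag and DsRed, then purified on Ni–NTA. After primer extension with Cy5-dUTP and blocking with 2% BSA, a custom Agilent array was exposed for 1 h at 25 °C to 200 nM protein in PBS, 2% BSA, salmon testes DNA and 50 µM zinc acetate. Washed arrays were scanned on an Axon 4000B, and the binding signal is per-feature fluorescence intensity in arbitrary units.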
row,Sequence,binding signal
1,CGTAGGACAGGAGTATGTAACGTGCCTCGTCAACACGACGCGGAGTCACCTAGTGCAG,5130 fluorescence intensity (a.u.)
2,TCCAACCATGCCACCTCGGATCACATGGCCAGAATGTCCACGGAGTCACCTAGTGCAG,4580 fluorescence intensity (a.u.)
3,TCGCCGAATCACGACACTGCTGCCGACGACGATGGTGACGCGGAGTCACCTAGTGCAG,3930 fluorescence intensity (a.u.)
4,GAGCTGGTAGATTGTAGTACGTGGTAGATACTTACTTACTCGGAGTCACCTAGTGCAG,3800 fluorescence intensity (a.u.)
5,GATAAAGTTTACCTGTTTTCGATTGGTTGGCTGACGTGTCCGGAGTCACCTAGTGCAG,16500 fluorescence intensity (a.u.)
6,TAGCCCGACGTGACGCTGAGTCAGCGTGGGACCCACGTGGCGGAGTCACCTAGTGCAG,19000 fluorescence intensity (a.u.)
7,AGAGAGCCGAGCTAACGACCTCATCGCTGACGCCACCGCACGGAGTCACCTAGTGCAG,5150 fluorescence intensity (a.u.)
8,CATTTCACTGATCCATGGAAGTTTGCGCGTGGTAGATCATCGGAGTCACCTAGTGCAG,33800 fluorescence intensity (a.u.)
9,TTGGTCACTGCTCACACTGACCAGTGAGTCAGTGACCATACGGAGTCACCTAGTGCAG,15200 fluorescence intensity (a.u.)
10,CTTGTTTGCCAAGAATAATTGGGAAGAGGAATGAATACAACGGAGTCACCTAGTGCAG,28600 fluorescence intensity (a.u.)
11,GTAGATGCACCCCTGGAAAACCCAGGTAATTACGAACTAGCGGAGTCACCTAGTGCAG,3850 fluorescence intensity (a.u.)
12,AGCCTAGGAGGAGATGTGACCTCACAGTCAGGTGTCATCGCGGAGTCACCTAGTGCAG,3660 fluorescence intensity (a.u.)
13,CCTTCCCCGCCAGCCGCCGGCCACGCCGGCTCTCCTCCCCCGGAGTCACCTAGTGCAG,3480 fluorescence intensity (a.u.)
14,TTTTGAGCCTAGTTAGTCCATGATTAGCCATAAATGCTACCGGAGTCACCTAGTGCAG,4540 fluorescence intensity (a.u.)
15,CTAACAAAGCCACAGTATGCTCACACGTGTACACATCTCCCGGAGTCACCTAGTGCAG,8120 fluorescence intensity (a.u.)
16,CGCCGCCGTGGATCCGCCTCCCCTCCGCGCGCGCATCCCGCGGAGTCACCTAGTGCAG,3390 fluorescence intensity (a.u.)
17,CGTCGTCCCCGACGAGCTCCTGACCGCGCCGCCGTCCGTCCGGAGTCACCTAGTGCAG,3380 fluorescence intensity (a.u.)
18,CACTCTTGAGTTAAGTATGACTTGTGTGCTGCAGCCAAGCCGGAGTCACCTAGTGCAG,3530 fluorescence intensity (a.u.)
19,CCAAGGGTGGGGCCTCTCGTCGTCTCGTCTCCTCTCGTCTCGGAGTCACCTAGTGCAG,3190 fluorescence intensity (a.u.)
20,AATTCCTCTCTCTCTCTCCCCTCCCATGGCGTCACTGTCGCGGAGTCACCTAGTGCAG,6120 fluorescence intensity (a.u.)
21,GGAGTTTGTGATAACTCGCACGGCCTATGCGTACGTAGCACGGAGTCACCTAGTGCAG,4680 fluorescence intensity (a.u.)

row,Sequence,binding signal
1,AAAGTTGTAAAAGATCACACGTATCATGATATGTGGCACCCGGAGTCACCTAGTGCAG,4850 fluorescence intensity (a.u.)
2,CCGCATGATGTCGTCGTGTATACGGCTATGCACTTGTGTCCGGAGTCACCTAGTGCAG,3840 fluorescence intensity (a.u.)
3,TATACAACAATTGTGCTTTGTCTGCAGCTCCGTCACTGAACGGAGTCACCTAGTGCAG,3630 fluorescence intensity (a.u.)
4,AGCACGGACTCCAAAACGTAATGTGTGTATGACACGTGCGCGGAGTCACCTAGTGCAG,8730 fluorescence intensity (a.u.)
5,ATAAGAAAACAAACGTACTATATGATGCGACACGTTGTAGCGGAGTCACCTAGTGCAG,3220 fluorescence intensity (a.u.)
6,CCACCATGCCGTCACCATCCCAGCCGTCCTCCTCCTCCTCCGGAGTCACCTAGTGCAG,4840 fluorescence intensity (a.u.)
7,CGATCGATCGGAACGCGCGCGGCGCTCCACGGCCATGTCCCGGAGTCACCTAGTGCAG,3470 fluorescence intensity (a.u.)
8,CACGGACGCAAGGGGCCTGCTAAGCCTCTACAACGCAGCGCGGAGTCACCTAGTGCAG,41800 fluorescence intensity (a.u.)
9,GAAACCGAGGTAATTTCGTCGAACACCTTGATGACGTCCACGGAGTCACCTAGTGCAG,4350 fluorescence intensity (a.u.)
10,GCTGTGCCGTGGGGCCGAGGTGACGTGTGGATGCTGACTTCGGAGTCACCTAGTGCAG,12000 fluorescence intensity (a.u.)
11,CAGAGGCGGTCAAGTGTGGTGCGGTGCGATGGCAGCGGGGCGGAGTCACCTAGTGCAG,3940 fluorescence intensity (a.u.)
12,GGGCCAATCTAGTTGTCAACTTCTACTACTGCTAGGAGGACGGAGTCACCTAGTGCAG,3410 fluorescence intensity (a.u.)
13,GCGCCCTCCTCCTGCCACGTCGGTTCGCGTGCGCCACGGTCGGAGTCACCTAGTGCAG,19500 fluorescence intensity (a.u.)
14,CGCCACGCTTGCCTTCATCACCCAGACACGCGCGTCCCATCGGAGTCACCTAGTGCAG,3430 fluorescence intensity (a.u.)
15,GAGGCGGGTGATAGCGCGGTGGGGCGGTGGCGGCGGTGGACGGAGTCACCTAGTGCAG,3290 fluorescence intensity (a.u.)
16,TACTATTAAACCGTATGTGACTAATAATCAAGCTGAGTATCGGAGTCACCTAGTGCAG,3320 fluorescence intensity (a.u.)
17,AGAAGGCAATGAAAGAAGATTGCTGACTAGGATTGTTGGCCGGAGTCACCTAGTGCAG,21600 fluorescence intensity (a.u.)
18,CATGGTGCGGGCCAGCTCAGCTGTGCACGTGGCATGCCACCGGAGTCACCTAGTGCAG,17200 fluorescence intensity (a.u.)
19,TTATGTACTAATGACTCATCATGTTTTACATGTATTCTCTCGGAGTCACCTAGTGCAG,25900 fluorescence intensity (a.u.)
20,TGATTTGACGCTGACTATTATATAGATAGTCCCTCACGTTCGGAGTCACCTAGTGCAG,3170 fluorescence intensity (a.u.)
21,TTGTCGTACTCCAGTACTCCACTATCGCTGCCACGACCATCGGAGTCACCTAGTGCAG,3160 fluorescence intensity (a.u.)

# Given as tab-separated lines: part of the list above.
row	Sequence	binding signal
1	AAAGTTGTAAAAGATCACACGTATCATGATATGTGGCACCCGGAGTCACCTAGTGCAG	4850 fluorescence intensity (a.u.)
3	TATACAACAATTGTGCTTTGTCTGCAGCTCCGTCACTGAACGGAGTCACCTAGTGCAG	3630 fluorescence intensity (a.u.)
4	AGCACGGACTCCAAAACGTAATGTGTGTATGACACGTGCGCGGAGTCACCTAGTGCAG	8730 fluorescence intensity (a.u.)
5	ATAAGAAAACAAACGTACTATATGATGCGACACGTTGTAGCGGAGTCACCTAGTGCAG	3220 fluorescence intensity (a.u.)
6	CCACCATGCCGTCACCATCCCAGCCGTCCTCCTCCTCCTCCGGAGTCACCTAGTGCAG	4840 fluorescence intensity (a.u.)
8	CACGGACGCAAGGGGCCTGCTAAGCCTCTACAACGCAGCGCGGAGTCACCTAGTGCAG	41800 fluorescence intensity (a.u.)
14	CGCCACGCTTGCCTTCATCACCCAGACACGCGCGTCCCATCGGAGTCACCTAGTGCAG	3430 fluorescence intensity (a.u.)
15	GAGGCGGGTGATAGCGCGGTGGGGCGGTGGCGGCGGTGGACGGAGTCACCTAGTGCAG	3290 fluorescence intensity (a.u.)
16	TACTATTAAACCGTATGTGACTAATAATCAAGCTGAGTATCGGAGTCACCTAGTGCAG	3320 fluorescence intensity (a.u.)
17	AGAAGGCAATGAAAGAAGATTGCTGACTAGGATTGTTGGCCGGAGTCACCTAGTGCAG	21600 fluorescence intensity (a.u.)
18	CATGGTGCGGGCCAGCTCAGCTGTGCACGTGGCATGCCACCGGAGTCACCTAGTGCAG	17200 fluorescence intensity (a.u.)
20	TGATTTGACGCTGACTATTATATAGATAGTCCCTCACGTTCGGAGTCACCTAGTGCAG	3170 fluorescence intensity (a.u.)
21	TTGTCGTACTCCAGTACTCCACTATCGCTGCCACGACCATCGGAGTCACCTAGTGCAG	3160 fluorescence intensity (a.u.)
